Results reported in patent publication EP3912994A1.

The chains behind the UniProt entries cited, without tags or fusion partners. Residues count along the entry.
UniProt Q80YX1, residues 23-2110: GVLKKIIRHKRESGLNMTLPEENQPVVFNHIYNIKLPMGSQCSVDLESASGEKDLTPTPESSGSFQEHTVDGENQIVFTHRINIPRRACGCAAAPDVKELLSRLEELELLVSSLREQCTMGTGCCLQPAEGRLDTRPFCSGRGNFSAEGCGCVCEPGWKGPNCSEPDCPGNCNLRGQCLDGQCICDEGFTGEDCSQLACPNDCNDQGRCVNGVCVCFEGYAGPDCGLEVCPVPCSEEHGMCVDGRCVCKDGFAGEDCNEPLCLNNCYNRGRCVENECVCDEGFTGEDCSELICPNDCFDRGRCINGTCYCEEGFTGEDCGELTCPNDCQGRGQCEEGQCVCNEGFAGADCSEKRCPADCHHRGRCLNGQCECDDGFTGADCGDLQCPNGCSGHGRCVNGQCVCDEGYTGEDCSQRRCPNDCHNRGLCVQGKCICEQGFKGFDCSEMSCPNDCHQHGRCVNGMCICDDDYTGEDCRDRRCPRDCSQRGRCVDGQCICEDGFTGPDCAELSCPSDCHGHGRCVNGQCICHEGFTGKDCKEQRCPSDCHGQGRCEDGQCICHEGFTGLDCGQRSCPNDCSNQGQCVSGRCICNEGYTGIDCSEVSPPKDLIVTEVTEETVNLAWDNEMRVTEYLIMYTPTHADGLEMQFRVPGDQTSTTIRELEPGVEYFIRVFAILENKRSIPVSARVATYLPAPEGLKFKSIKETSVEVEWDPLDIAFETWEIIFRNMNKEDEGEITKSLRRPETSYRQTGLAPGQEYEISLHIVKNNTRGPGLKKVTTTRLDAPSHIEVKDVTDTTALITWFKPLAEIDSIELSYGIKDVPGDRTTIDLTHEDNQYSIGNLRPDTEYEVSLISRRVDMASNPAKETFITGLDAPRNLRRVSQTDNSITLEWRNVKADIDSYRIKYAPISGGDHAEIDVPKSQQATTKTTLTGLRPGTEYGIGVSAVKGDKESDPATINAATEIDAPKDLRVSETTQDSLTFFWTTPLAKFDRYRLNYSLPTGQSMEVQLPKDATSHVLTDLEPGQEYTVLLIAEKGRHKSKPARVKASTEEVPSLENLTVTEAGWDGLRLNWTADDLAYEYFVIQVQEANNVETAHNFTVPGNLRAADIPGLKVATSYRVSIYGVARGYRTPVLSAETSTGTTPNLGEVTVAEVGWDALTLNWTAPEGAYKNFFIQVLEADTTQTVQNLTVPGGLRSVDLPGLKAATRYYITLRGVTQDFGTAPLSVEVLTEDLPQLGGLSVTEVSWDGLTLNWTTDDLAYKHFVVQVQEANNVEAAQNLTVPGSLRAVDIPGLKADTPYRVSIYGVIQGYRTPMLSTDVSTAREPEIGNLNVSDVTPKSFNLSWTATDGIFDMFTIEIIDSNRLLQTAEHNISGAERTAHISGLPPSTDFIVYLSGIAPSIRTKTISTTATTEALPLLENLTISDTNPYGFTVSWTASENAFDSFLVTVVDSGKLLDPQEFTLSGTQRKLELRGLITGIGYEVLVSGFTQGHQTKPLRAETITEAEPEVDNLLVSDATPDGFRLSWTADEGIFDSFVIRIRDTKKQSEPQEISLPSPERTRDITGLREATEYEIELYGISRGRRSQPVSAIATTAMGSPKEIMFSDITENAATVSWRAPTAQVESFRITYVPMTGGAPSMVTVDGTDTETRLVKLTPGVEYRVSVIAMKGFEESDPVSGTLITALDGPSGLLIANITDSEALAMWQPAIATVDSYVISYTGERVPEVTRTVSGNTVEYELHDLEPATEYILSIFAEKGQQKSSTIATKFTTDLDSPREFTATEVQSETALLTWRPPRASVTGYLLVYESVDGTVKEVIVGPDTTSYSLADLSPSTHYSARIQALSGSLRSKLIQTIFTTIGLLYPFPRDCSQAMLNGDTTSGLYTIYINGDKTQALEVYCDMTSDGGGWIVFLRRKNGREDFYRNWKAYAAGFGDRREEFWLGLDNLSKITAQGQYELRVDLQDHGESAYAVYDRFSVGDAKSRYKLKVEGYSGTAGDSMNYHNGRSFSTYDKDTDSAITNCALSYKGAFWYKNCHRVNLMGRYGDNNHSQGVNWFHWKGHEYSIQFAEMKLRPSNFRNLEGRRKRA

B1: Nidogen-2 (protein, UniProt O88322 31-1403, looked up)
chain: LRPDELFPYGESWGDQLLPEGDDESSAAVKLAIPLRFYDAQFSSLYVGTNGIISTQDFPRETQYVDDDFPTDFPAIAPFLADIDTSHSRGRILYREDTSGAVLSLAARYVRTGFPLSGSSFTPTHAFLATWEHVGAYEEVSRGAAPSGELNTFQAVLASDESDTYALFLYPANGLQFFGTRPKESYNVQLQLPARVGFCRGEADDLKREALYFSLTNTEQSVKNLYQLSNLGIPGVWAFHIGSRFALDNVRPATVGGDPSTARSSALEHPFSHAAALESYTEDSFHYYDENEEDVEYPPVEPGEAPEGHSRIDVSFNSKADPGLVDVGTSSPGSDRASPWPYPAPGNWPSYRETESASLDPQTKQGRPVGEGEVLDFRDPAELLDQMGTRAPAPPEADAALLTPVNEDLGGRNTQSYPEAGPVPSEPDVPVPPLEGEVLPHYPESGHVPPLRGGKYVIGLEDHVGSNDQVFTYNGANLETCEHSHGRCSQHAFCTDYTTGFCCHCQSRFYGNGKHCLPEGAPHRVNGKVSGRLRVGHIPVHFTDVDLHAYIVGNDGRAYTAISHVPQPAAQALLPVLPIGGLFGWLFALEKPGSENGFSLTGATFVHDVEVTFHPGEERVRITQTAEGLDPENYLSIKTNIEGQVPFIPANFTAHITPYKEFYHYRDSVVTSSSSRSFSLTSGSINQTWSYHIDQNITYQACRHAPRHLAIPATQQLTVDRAFALYSEDEGVLRFAVTNQIGPVEVDSAPVGVNPCYDGSHTCDTTARCHPGTGVDYTCECTPGFQGDGRSCVDVNECATGFHRCGPNSVCVNLVGSYRCECRSGYEFADDQHTCILIAPPPNPCLDGSHTCAPEGQARCIHHGGSSFSCACLPGFIGTGHQCSDVDECAENRCHEAAICYNTPGSFSCRCQPGYRGDGFHCTSDTVPEDSISGLKPCEYQQRYAQTQHAYPGSRIHIPQCDDQGNFVPLQCHGSTGFCWCVDRNGHEVPGTQTPPGSTPPHCGPPPEPTQRPRTVCERWRESLLEHYGGTPRDDQYVPQCDDLGHFIPLQCHGKSDFCWCVDKDGRELQGTRSQPGTRPACIPTVAPPVVRPTPRPDVTPPSVGTFLLYAQGQQIGHLPLNGSRLQKDAARTLLSLHGSIVVGIDYDCRERMVYWTDVAGRTISRASLEAGAEPETIITSGLISPEGLAIDHFRRTMYWTDSGLDKIERAELDGSERKVLFHTDLVNPRAITVDPIRGNLYWTDWNREAPKIETSSLDGENRRILINKDIGLPNGLTFDPFSKLLCWADAGTKKLECTLPDGTGRRVIQNHLNYPFSIVSYADHFYHTDWRRDGVISVNKDSGQFTDEFLPEQRSHLYGITAVYPYCPTGRK
B2: Periostin (protein, UniProt Q62009 24-838, looked up)
chain: NSYYDKVLAHSRIRGRDQGPNVCALQQILGTKKKYFSSCKNWYQGAICGKKTTVLYECCPGYMRMEGMKGCPAVMPIDHVYGTLGIVGATTTQHYSDVSKLREEIEGKGSYTYFAPSNEAWENLDSDIRRGLENNVNVELLNALHSHMVNKRMLTKDLKHGMVIPSMYNNLGLFINHYPNGVVTVNCARVIHGNQIATNGVVHVIDRVLTQIGTSIQDFLEAEDDLSSFRAAAITSDLLESLGRDGHFTLFAPTNEAFEKLPRGVLERIMGDKVASEALMKYHILNTLQCSEAITGGAVFETMEGNTIEIGCEGDSISINGIKMVNKKDIVTKNGVIHLIDEVLIPDSAKQVIELAGKQQTTFTDLVAQLGLASSLKPDGEYTLLAPVNNAFSDDTLSMDQRLLKLILQNHILKVKVGLSDLYNGQILETIGGKQLRVFVYRTAICIENSCMVRGSKQGRNGAIHIFREIIQPAEKSLHDKLRQDKRFSIFLSLLEAADLKDLLTQPGDWTLFAPTNDAFKGMTSEERELLIGDKNALQNIILYHLTPGVYIGKGFEPGVTNILKTTQGSKIYLKGVNETLLVNELKSKESDIMTTNGVIHVVDKLLYPADIPVGNDQLLELLNKLIKYIQIKFVRGSTFKEIPMTVYTTKIITKVVEPKIKVIQGSLQPIIKTEGPAMTKIQIEGDPDFRLIKEGETVTEVIHGEPVIKKYTKIIDGVPVEITEKQTREERIITGPEIKYTRISTGGGETGETLQKFLQKEVSKVTKFIEGGDGHLFEDEEIKRLLQGDTPAKKIPANKRVQGPRRRSREGRSQ
B3: Peroxidasin homolog (enzyme, UniProt Q3UQ28 24-1475, looked up)
chain: VVASKQGAGCPSRCLCFRTTVRCMHLLLEAVPAVAPQTSILDLRFNRIREIQPGAFRRLRSLNTLLLNNNQIKKIPNGAFEDLENLKYLYLYKNEIQSIDRQAFKGLASLEQLYLHFNQIETLDPESFQHLPKLERLFLHNNRITHLVPGTFSQLESMKRLRLDSNALHCDCEILWLADLLKTYAQSGNAQAAATCEYPRRIQGRSVATITPEELNCERPRITSEPQDADVTSGNTVYFTCRAEGNPKPEIIWLRNNNELSMKTDSRLNLLDDGTLMIQNTQEADEGVYQCMAKNVAGEAKTQEVTLRYLGSPARPTFVIQPQNTEVLVGESVTLECSATGHPLPQITWTRGDRTPLPIDPRVNITPSGGLYIQNVAQSDSGEYTCFASNSVDSIHATAFIIVQALPQFTVTPQSRVVIEGQTVDFQCAAKGHPQPVIAWTKGGSQLSVDRRHLVLSSGTLRISGVALHDQGQYECQAVNIIGSQKVVAHLTVQPRVTPVFASIPSDMTVEVGTNVQLPCSSQGEPEPAITWNKDGVQVTESGKFHISPEGFLTINDVGTADAGRYECVARNTIGYASVSMVLSVNVPDVSRNGDPYVATSIVEAIATVDRAINSTRTHLFDSRPRSPNDLLALFRYPRDPYTVGQARAGEIFERTLQLIQEHVQHGLMVDLNGTSYHYNDLVSPQYLSLIANLSGCTAHRRVNNCSDMCFHQKYRTHDGTCNNLQHPMWGASLTAFERLLKAVYENGFNTPRGINSQRQYNGHVLPMPRLVSTTLIGTEVITPDEQFTHMLMQWGQFLDHDLDSTVVALSQARFSDGQHCSSVCSNDPPCFSVMIPPNDPRVRSGARCMFFVRSSPVCGSGMTSLLMNSVYPREQINQLTSYIDASNVYGSTDHEARSIRDLASHRGLLRQGIVQRSGKPLLPFATGPPTECMRDENESPIPCFLAGDHRANEQLGLTSMHTLWFREHNRIAAELLKLNPHWDGDTVYHETRKIVGAEIQHITYRHWLPKILGEVGMKMLGEYRGYDPSVNAGIFNAFATAAFRFGHTLINPLLYRLDENFEPIPQGHVPLHKAFFSPFRIVNEGGIDPLLRGLFGVAGKMRIPSQLLNTELTERLFSMAHTVALDLAAINIQRGRDHGIPPYHDYRVYCNLSAAYTFEDLKNEIKSPVIREKLQRLYGSTLNIDLFPALMVEDLVPGSRLGPTLMCLLSTQFRRLRDGDRLWYENPGVFSPAQLTQLKQTSLARILCDNSDNITRVQQDVFRVAEFPHGYSSCEDIPRVDLRVWQDCCEDCRTRGQFNAFSYHFRGRRSLEFSYEDDKPTKRARWRKALSVKHGKHLSNATSATHEHLEGPATNDLKEFVLEMQKIITDLRKQINSLESRLSTTECVDDSGESHGGNTKWKKDPCTVCECKNGQITCFVEACQPAACPQPVKVEGACCPVCLKNTAEEKP
B4: Olfactomedin-like protein 2B (protein, UniProt Q3V1G4 21-746, looked up)
chain: STTPPTGTSEPPDVQTVEPTEDDILQNEADNQENVLSQLLGDYDKVKAVSEGSDCQCKCVVRPLGRDACQRINQGASRKEDFYTVETITSGSSCKCACVAPPSAVNPCEGDFRLQKLREADSRDLKLSTIIDLLEGAFYGLDLLKLHSVTTKLVGRVDKLEEEVSKNLTKENEQIKEDVEEIRTELNKRGKENCSDNTLESMPDIRSALQRDAAAAYAHPEYEERFLQEETVSQQINSIELLRTQPLVPPAAMKPQRPLQRQVHLRGRLASKPTVIRGITYYKAKVSEEENDIEEQHDELFSGDSGVDLLIEDQLLRQEDLLTSATRRPATTRHTAAVTTDASIQAAASSSEPAQASASASSFVEPAPQASDRELLATPQTTTVFPEPTEVMPSTQVSPTTVAHTAVQPLPAMVPGDIFVEALPLVPLLPDTVGTDMPEEEGTAGQEATSAGPILSPEEEDDIRNVIGRCKDTLSTITGPTTQNTYGRNEGAWMKDPLAKDDRIYVTNYYYGNTLVEFRNLENFKQGRWSNSYKLPYSWIGTGHVVYNGAFYYNRAFTRNIIKYDLKQRYVAAWAMLHDVAYEEATPWRWQGHSDVDFAVDENGLWLIYPALDDEGFNQEVIVLSKLNAVDLSTQKETTWRTGLRRNFYGNCFVICGVLYAVDSYNQRNANISYAFDTHTNTQIVPRLLFENEYSYTTQIDYNPKDRLLYAWDNGHQVTYHVIFAY
B5: SPARC-related modular calcium-binding protein 2 (protein, UniProt Q8CD91 22-447, looked up)
chain: QKFSALTFLRVDQDKDRDCSLDCPSSPQKPLCASDGRTFLSRCEFQRAKCKDPQLEIAHRGNCKDVSRCVAERKYTQEQARKEFQQVFIPECNDDGTYSQVQCHSYTGYCWCVTPNGRPISGTAVAHKTPRCPGSINEKVPQREGAGKADDAAAPALETQPQGDEEDIASRYPTLWTEQVKSRQNKTNKNSASSCDQEHQSALEEAKQPKNDNVVIPECAHGGLYKPVQCHPSTGYCWCVLVDTGRPIPGTSTRYEQPKCDNTARAHPAKARDLYKNRPLQGCPGAKKHEFLTSVLDALSTDMVHAVSDPSSSSGRLSEPDPSHTLEERVVHWYFKLLDKNSSGDIGKKEIKPFKRFLRKKSKPKKCVKKFVEYCDMNNDKSITVQELMGCLGVTREEGKANTRKRHTPRGNAESSSSNRQPRKQG
B6: SPARC-related modular calcium-binding protein 1 (protein, UniProt Q8BLY1 26-463, looked up)
chain: HRTTGPRFLISDRDPPCNPHCPRTQPKPICASDGRSYESMCEYQRAKCRDPALAVVHRGRCKDAGQSKCRLERAQALEQAKKPQEAVFVPECGEDGSFTQVQCHTYTGYCWCVTPDGKPISGSSVQNKTPVCSGPVTDKPLSQGNSGRKVSFRFFLTLNSDDGSKPTPTMETQPVFDGDEITAPTLWIKHLVIKDSKLNNTNVRNSEKVHSCDQERQSALEEARQNPREGIVIPECAPGGLYKPVQCHQSTGYCWCVLVDTGRPLPGTSTRYVMPSCESDARAKSVEADDPFKDRELPGCPEGKKMEFITSLLDALTTDMVQAINSAAPTGGGRFSEPDPSHTLEERVAHWYFSQLDSNSSDDINKREMKPFKRYVKKKAKPKKCARRFTDYCDLNKDKVISLPELKGCLGVSKEGGSLGSFPQGKRAGTNPFIGRLV
B7: Secreted frizzled-related protein 1 (protein, UniProt Q8C4U3 32-314, looked up)
chain: SEYDYVSFQSDIGSYQSGRFYTKPPQCVDIPVDLRLCHNVGYKKMVLPNLLEHETMAEVKQQASSWVPLLNKNCHMGTQVFLCSLFAPVCLDRPIYPCRWLCEAVRDSCEPVMQFFGFYWPEMLKCDKFPEGDVCIAMTPPNTTEASKPQGTTVCPPCDNELKSEAIIEHLCASEFALRMKIKEVKKENGDKKIVPKKKKPLKLGPIKKKELKRLVLFLKNGADCPCHQLDNLSHNFLIMGRKVKSQYLLTAIHKWDKKNKEFKNFMKRMKNHECPTFQSVFK

Molecular target: murine strep-tagged TNC (mTNC) (mouse) (UniProt Q80YX1)
Test: co-purification with recombinant mTNC, 1 M NaCl eluate, mass spectrometry

binding, binds:
B1, B2, B3, B4, B5, B6, B7

These are yes or no findings as the source states them, for the method shown. In cells and extracts the contact can be indirect. These calls come from enrichment with a bait or labelling near it, and not all partners need be listed.
